# Whole data set: some 3,200 compounds, median “TSA(without NAD+) / Primary screening (TSA) / delta Tm (K)” near -0.07, cut for the highest 2% near 0.37. The list shows a part of the results.
# Amino acid sequences for entries named in this document (tags omitted). Residues count along the entry.
# UniProt Q96EB6, 2-747 limits assumed: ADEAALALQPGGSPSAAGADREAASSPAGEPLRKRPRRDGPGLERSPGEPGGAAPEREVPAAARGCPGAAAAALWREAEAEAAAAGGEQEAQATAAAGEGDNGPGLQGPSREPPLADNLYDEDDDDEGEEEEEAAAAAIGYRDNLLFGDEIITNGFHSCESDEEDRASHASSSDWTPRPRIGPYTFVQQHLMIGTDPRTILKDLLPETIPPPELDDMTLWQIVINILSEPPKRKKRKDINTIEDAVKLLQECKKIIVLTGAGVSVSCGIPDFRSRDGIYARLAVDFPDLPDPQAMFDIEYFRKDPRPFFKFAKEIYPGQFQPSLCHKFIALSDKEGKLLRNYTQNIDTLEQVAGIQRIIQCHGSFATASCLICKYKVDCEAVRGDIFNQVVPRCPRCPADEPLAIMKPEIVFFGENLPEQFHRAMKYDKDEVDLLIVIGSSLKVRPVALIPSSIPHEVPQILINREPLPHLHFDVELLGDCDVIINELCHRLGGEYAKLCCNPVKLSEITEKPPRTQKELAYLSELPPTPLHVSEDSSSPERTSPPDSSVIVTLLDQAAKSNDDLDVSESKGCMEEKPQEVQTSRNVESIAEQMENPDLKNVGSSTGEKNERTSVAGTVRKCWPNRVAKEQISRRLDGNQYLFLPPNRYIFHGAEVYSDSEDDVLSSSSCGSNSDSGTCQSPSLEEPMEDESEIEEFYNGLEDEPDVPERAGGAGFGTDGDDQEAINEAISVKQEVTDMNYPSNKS
# Molecular target: NAD-dependent deacetylase Sirtuin 1 (human, UniProt Q96EB6)
# Test: primary screen, delta tm
# Set-up: single well (n = 1)
# Conditions: 10 µM
# Summary of the method: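 Thermal shift of Sirtuin 1 measured without NAD+, compound at 10 µM (n = 1); value is ΔTm, with hits defined as ΔTm > 0.45 K or < −1.5 K. Hits retested at 5, 10, 20 µM (n = 4) and counterscreened on bovine carbonic anhydrase and ABL1 SH2 domain.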
row,Structure (SMILES),TSA(without NAD+) / Primary screening (TSA) / delta Tm (K)
1,CC(N)c1nnn[nH]1 (stereo not shown),-0.18
2,O=C1NCCN(C(=O)c2ccon2)C1c1ccc(C(F)(F)F)cc1 (stereo not shown),-0.14
3,CCc1ccc(-c2nn(-c3ccccc3)cc2C=C2C(=O)NC(=O)NC2=O)cc1,-0.62
4,CNC(=O)C(C)CN(C)c1ccc(C(F)(F)F)c(C#N)c1 (stereo not shown),-0.28
5,O=C(Nc1ccccc1)C1CCN(C(=O)c2cc(-c3ccc(O)cc3)nc3ccccc23)CC1,0.08
6,Cc1cc(C=C2C(=O)NC(=S)NC2=O)c(C)n1-c1cccc(C(F)(F)F)c1,-0.64
7,OC(COc1c(Cl)cccc1Cl)Cn1nnc(-c2cccnc2)n1 (stereo not shown),-0.02
8,CN(c1ccccc1)S(=O)(=O)c1cccc(/N=C2/C(=O)Nc3ccc(Br)cc32)c1,-0.92
9,COc1ccc(C(=O)O)cc1S(=O)(=O)Nc1cc(C(N)=O)cc(C(N)=O)c1,-0.03
10,CC(C)OCc1ccc(C(=O)Nc2ccc(N3CCN(Cc4ccccc4)CC3)cc2)cc1,-0.18
11,COc1ccc(C)cc1-n1ccc(C(=O)N2CCCc3c(C(N)=O)cccc32)n1,-0.02
12,Cc1oc2nc[nH]c(=O)c2c1C(=O)OC(C)C(=O)N1CCOCC1 (stereo not shown),-0.12
13,O=C(Nc1cccc(S(=O)(=O)N2CCOCC2)c1)c1cccc(S(=O)(=O)N2CCc3ccccc32)c1,0.37
14,Cc1cccc(N/C=C(/C(=O)c2ccccc2)C(=O)C(F)(F)F)c1,-0.11
15,Cn1c(-c2ccccc2)c(C(=O)O)c2ccccc21,0.16
16,NC(=O)C1CCN(CCCNC(=O)Nc2cccc(N3CCNC3=O)c2)CC1,-0.08
17,CCOCC(C)N (stereo not shown),-0.24
18,O=C(CC(=O)N/N=C/c1ccc(O)cc1O)N/N=C/c1ccc(O)cc1O,0.15
19,Cc1cccc(NC(=O)CN2CCN(C(=O)c3ccccc3C(=O)c3ccccc3)CC2)c1C,-0.07
20,CCCOc1ccc(C(=O)C2=C(O)C(=O)N(CCCN3CCOCC3)C2c2ccccn2)cc1 (stereo not shown),0.03
21,COc1ccc(N(C)S(=O)(=O)c2cccc(C(=O)OCCCC(=O)c3ccc(F)cc3)c2)cc1,0.06
22,COc1ccc(C(=O)C2=C(O)C(=O)N(CCCN3CCOCC3)C2c2ccccc2F)cc1 (stereo not shown),0.02
23,NC(=S)c1ccc(C(=O)NCc2ccnc(OCC(F)(F)F)c2)cc1,-0.18

row,Structure (SMILES),TSA(without NAD+) / Primary screening (TSA) / delta Tm (K)
1,COc1ccc(NC(=O)COC(=O)c2ccccc2SCC(=O)NC23CC4CC(CC(C4)C2)C3)cc1OC,-0.22
2,Cc1c(-c2ccccc2)oc2c(C(=O)OCC(=O)NC34CC5CC(CC(C5)C3)C4)cccc2c1=O,-0.07
3,COc1ccc(CNCc2c[nH]nc2-c2ccc(C)cc2)cc1OC,-0.33
4,NCCC[C@H](N)C(=O)O,-0.22
5,CN(c1ccc(F)cc1)S(=O)(=O)c1cccc(-c2nnnn2C)c1,0.07
6,O=C(OCc1cccc2ccccc12)C1CCCCN1c1ncccn1 (stereo not shown),-0.13
7,O=C(C1=C(O)C(=O)N(CCCN2CCOCC2)C1c1cccc([N+](=O)[O-])c1)c1ccco1 (stereo not shown),-0.04
8,CCCN(CC)CCN,0.05
9,NC(=O)c1ccc(COC(=O)c2ccccc2-c2ncc(-c3ccccc3)o2)cc1,-0.12
10,CC(=O)c1cccc(NC(=O)c2ccc(CCNS(C)(=O)=O)s2)c1,-0.13
11,CC(C)Oc1ccc(C2C(C(=O)c3ccco3)=C(O)C(=O)N2CCCN2CCOCC2)cc1 (stereo not shown),-0.02
12,C=CCOCCN,-0.27
13,CC(OC(=O)C1CC(=O)N(Cc2ccco2)C1)C(=O)Nc1ccc(C(N)=O)cc1 (stereo not shown),0.06
14,CC(C)C(NC(=O)c1cnsn1)c1cccs1 (stereo not shown),-0.11
15,Cc1c(C=C2C(=O)NC(=S)NC2=O)cnn1-c1ccccc1,-0.07
16,Cc1nn(-c2cccc(C(F)(F)F)c2)c(C)c1C(=O)C(=O)N1CCNC(=O)C1,-0.01
17,Cn1c(SCCc2ccccc2)nc2ccsc2c1=O,-0.33
18,O=C(COC(=O)C1=COCCO1)Nc1cccc2ccccc12,-0.08
19,CCN(CC)c1ccc(NC(=O)CN2CCCC2C(=O)N(C)C)cc1 (stereo not shown),-0.14
20,Cc1ccc(N(C)S(=O)(=O)c2cccc(C(=O)Oc3ccc4oc5ccccc5c4c3)c2)cc1,-0.01
21,Cn1ccnc1C(NC(=O)c1ccc(O)c(Cl)c1)c1ccccc1F (stereo not shown),-0.23
22,O=C(C1=C(O)C(=O)N(CCN2CCOCC2)C1c1ccco1)c1ccco1 (stereo not shown),-0.15
23,O=C(CCc1c[nH]c2ccccc12)N1CCCC(c2nc3ccccc3[nH]2)C1 (stereo not shown),0.02

row,Structure (SMILES),TSA(without NAD+) / Primary screening (TSA) / delta Tm (K)
1,Cc1ccc(N(C)S(=O)(=O)c2cccc(C(=O)OCc3cc(=O)oc4c(C)c(C)ccc34)c2)cc1,-0.38
2,COc1ccc(-n2ccc(C(=O)Nc3ccc4nc[nH]c(=O)c4c3)n2)cc1,0.12
3,C=Cn1c(N)c(C(=O)OCC)sc1=S,-0.18
4,N#Cc1ccc(CN2CCN(CC(=O)Nc3cc(Cl)ccc3-n3cncn3)CC2)cc1,-0.07
5,Cc1ccc(CN(CCc2ccccc2)C(=O)Cc2c(C)nc(-c3ccccn3)[nH]c2=O)s1,0.18
6,O=c1c2ccncc2ncn1CC(O)c1cccc(F)c1 (stereo not shown),-0.15
7,COc1ccc(C(N)=O)cc1NC(=O)c1ccccc1-c1nc(C(C)C)no1,-0.14
8,O=C1COc2ccc(C(=O)CSc3nc(-c4ccccc4)c(-c4ccccc4)o3)cc2N1,-0.03
9,COc1cccc(NC(=O)COc2ccc(C(=O)OCC(=O)NCCC3=CCCCC3)cc2)c1,-0.21
10,Cc1ccc(N(C)S(=O)(=O)c2cccc(C(=O)Nc3sccc3C(N)=O)c2)cc1,0.17
11,CCOc1ccc(C2C(C(=O)c3ccc(OC)cc3)=C(O)C(=O)N2CCCN2CCOCC2)cc1 (stereo not shown),0.12
12,CC12CCC(C/C1=N/N=C1/CC3CCC1(C)C3(C)C)C2(C)C,-0.13
13,O=C(Nc1ccccc1Oc1ccccc1)c1cccc([N+](=O)[O-])c1,-0.13
14,Cc1csc2c(NC3(CO)CCCC3)ncnc12,-0.32
15,CC(NC(=O)c1ccccc1NC(=O)COC(=O)C12CC3CC(CC(O)(C3)C1)C2)c1ccccc1 (stereo not shown),0.12
16,CC(OC(=O)CNC(=O)C12CC3CC(CC(C3)C1)C2)C(=O)Nc1ccccc1-c1ccccc1 (stereo not shown),-0.08
17,Cc1nc(S)sc1CC(=O)NCC1CCCS1(=O)=O (stereo not shown),0.02
18,Cc1nc2ccccc2c(=O)n1CC(=O)O,0.07
19,COc1ccc(C2C(C(=O)/C=C/c3ccco3)=C(O)C(=O)N2CCCN2CCOCC2)cc1 (stereo not shown),-0.01
20,Cc1cccc2[nH]c(CCC(=O)NCC(=O)Nc3cccnc3)nc12,0.02
21,CC(OC(=O)c1ccc(-c2ccc(O)cc2)cc1)C(=O)NCc1ccccc1 (stereo not shown),-0.21
22,Cc1noc(C(C)N2CCN(Cc3cccc(C(N)=O)c3)CC2)n1 (stereo not shown),-0.43
23,CCOC(=O)c1sc2nc(C)nc(N3CCN(c4ccc(O)cc4)CC3)c2c1C,-0.13

row,Structure (SMILES),TSA(without NAD+) / Primary screening (TSA) / delta Tm (K)
1,COc1ccc(C(=O)C2=C(O)C(=O)N(CCCN3CCOCC3)C2c2ccco2)cc1OC (stereo not shown),-0.04
2,Cc1nccn1-c1ncnc2c1cnn2-c1ccccc1,-0.24
3,CCOc1ccc(C2C(C(=O)c3ccc(C)o3)=C(O)C(=O)N2CCCN2CCOCC2)cc1OC (stereo not shown),-0.11
4,C[C@@H](N)CO,0.05
5,CCc1noc(CNc2cc(C(N)=O)ccc2OC)n1,-0.03
6,O=C(CCn1[nH]c(=O)ccc1=O)Nc1ccc(Cl)cc1F,-0.01
7,NC(=O)c1cccc(CNCc2ccsc2)c1,-0.08
8,COc1ccc(CNCc2ccc(C(N)=O)cc2)cc1,0.07
9,NC(=O)c1ccc(COC(=O)c2cc3c(ccc4ccccc43)[nH]2)cc1,0.05
10,O=C(c1cccc(Cl)c1)N1CCc2ccccc21,-0.01
11,COc1ccccc1NS(=O)(=O)c1ccc(N2CCOCC2)c(NC(=S)NC(=O)C23CC4CC(CC(C4)C2)C3)c1,0.18
12,CCCC(C)C(=O)O (stereo not shown),-0.22
13,Cc1ccc(NC(=O)C2=COCCO2)cc1S(=O)(=O)N1CCOCC1,0.09
14,NNC(=O)Cc1ccc(Cl)cc1,-0.08
15,CCOc1ccc(CCNC(=O)COC(=O)CNC(=O)C23CC4CC(CC(C4)C2)C3)cc1OCC,0.03
16,CC1CCc2[nH]c3ccc(C(=O)OCC(=O)NC(=O)NC45CC6CC(CC(C6)C4)C5)cc3c2C1 (stereo not shown),0.27
17,COc1ccc(C(=O)C2=C(O)C(=O)N(CCCN3CCOCC3)C2c2ccccc2)cc1OC (stereo not shown),-0.21
18,COc1ccc(CCC(=O)Nc2cc(S(=O)(=O)N3CCCCC3)ccc2OC(C)C)cc1OC,0.02
19,CSc1cccc(NC(=O)c2cccc(S(=O)(=O)N(C)c3ccc(C)cc3)c2)c1,0.35
20,CCOC(=O)/C=C/C(=O)OCC(=O)N1N=C2/C(=C\c3ccc(OC)cc3)CCCC2C1c1ccc(OC)cc1 (stereo not shown),0.08
21,NC(=O)COC(=O)c1ccc(SCc2cn3ccccc3n2)cc1,0.07
22,N#Cc1ccc2[nH]c3c(c2c1)CCCC3,-0.08

# Some of the entries above, set out differently.
row	Structure (SMILES)	TSA(without NAD+) / Primary screening (TSA) / delta Tm (K)
4	C[C@@H](N)CO	0.05
5	CCc1noc(CNc2cc(C(N)=O)ccc2OC)n1	-0.03
6	O=C(CCn1[nH]c(=O)ccc1=O)Nc1ccc(Cl)cc1F	-0.01

# — paper PMC6925144, “A prospective compound screening contest identified broader inhibitors for Sirtuin 1” (Scientific Reports, 2019)
